# Primary screen of a compound library

Measurements from “University of Dundee, Small-Polar-MMV Screening Library” (2021), ChEMBL document CHEMBL3988442.

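Whole-cell assay for inhibitors of Mycobacterium tuberculosis growth, labelled Cornell in the record; the read-out is not stated. The concentration is filed as 10 mM, unlikely as a test dose, so the dose is not known. The record gives no direction; compounds strong in two other growth screens of this library score well above the rest, so higher reads as stronger inhibition. Size under these conditions: about 53,000 compounds, about 900 of them at 50% or above in at least one test.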

Values are the deposited “Percent Effect”, in %.
The record does not define 0% and 100%; most values in the screen are far below 50% and negative numbers occur (in some assays of this library far below -100).
Compounds were drawn at random from those tested, without regard to their results.

compound,Percent Effect
Cc1cc(C(=O)N2CCCC2c2nc(C)cc(O)n2)on1 (centres undefined),-22.33
Nc1cc2c(nn1)CCN(C(=O)c1csc(-c3ccccc3)n1)C2,21.33
O=C1CCC2(CCNCC2)CN1CCCNc1cccnc1,-17.34
COc1ccnc(N2CCc3ccc(OC(F)F)cc3C2)n1,105.8
Cc1nc(N)cc(C2CN(C(=O)c3ccn(C)n3)CCO2)n1 (centres undefined),-10.13
CCN(Cc1ccncc1)C1CCCN(Cc2ccc(F)cc2Cl)C1 (centres undefined),2.096
Cn1cc(CN2CC[C@H](O)[C@@H](n3ccc(=O)[nH]c3=O)CC2)cn1,-40.44
COCC(=O)NCC1CCCN(Cc2cc3ccccc3[nH]2)C1 (centres undefined),23.61
COc1ccc([C@@H]2CN(C(=O)Cc3cccs3)C[C@H]2NC(C)=O)cc1,4.326
O=C(c1ccc(Cl)c(Cl)c1)N1CCCCC1C1OCCO1 (centres undefined),-3.288
Cc1cnc2n(c1=O)C(CC(=O)NCc1cccnc1)CS2 (centres undefined),5.764
O=C(O)C(F)(F)F.[H][C@]12CCN(C(=O)NCc3ccccc3)C[C@@]1([H])OCCN(C(C)C)C2,-52.07
CN(CCn1ccc2ccccc21)C(=O)Cc1n[nH]c(=O)[nH]1,24.6
CCSCCC(C)NC(=O)Nc1cccn(C)c1=O (centres undefined),-45.45
CCC(C)NC(=O)c1ccc(CNC(=O)COC)cc1 (centres undefined),-37.58
O=C(CN1C(=O)CCC1=O)N1Cc2cncnc2C1,18.75
CCc1nnc(C2Cc3ccccc3CN2Cc2nc(C3CC3)no2)o1 (centres undefined),0.4176
CS(=O)(=O)Cc1ccc(NC(=O)c2cccnc2)cc1F,22.77
COCC(=O)Nc1ccnn1-c1ccc(Cl)cc1,20.9
Cc1ccc(C(=O)Nc2ccc(N3CCCC3)cn2)cc1F,26.25
O=C(O)C(F)(F)F.[H][C@]12CCN(c3ncccn3)CC[C@@]1([H])S(=O)(=O)N(CC(=O)N(C)C)C2,11.07
CN1CCc2[nH]nc(C(=O)N3CCCC4(CC3)CNC(=O)O4)c2C1 (centres undefined),-37.89
CC[C@H](C)[C@H](N)C(=O)N1CC(=O)c2sc(NC3CCCCC3)nc2C1,1.539
Cc1nc(O)cc(C2CCN(C(=O)c3[nH]nc4c3CC(C)CC4)CC2)n1 (centres undefined),14.16
O=C(NC1(c2cccc(F)c2)CCOCC1)c1ccccn1,2.762
O=C(NCCc1cccnc1)c1nc2c(s1)CCCN2C(=O)C1CC1.O=C(O)C(F)(F)F,2.505
Cc1ccsc1CNc1ccccc1C(=O)N1CCNC(=O)C1,-11.7
CN(C)c1ccc(CC(=O)N2CCOCC(O)C2)cc1 (centres undefined),-0.9079
CS(=O)(=O)CCCN1CCSCC1c1ccc(Cl)cc1 (centres undefined),25.81
CC(C)c1nc(CN(C)C(=O)CCc2ccc3c(c2)OCO3)cs1,6.228
Cn1cc(CN2CCC3(CCCN(C(=O)c4cnccn4)C3)C2)cn1 (centres undefined),0.8308
[H][C@@]12CNC(=O)[C@H](C)[C@]1([H])CN(Cc1cc(OC)cc(OC)c1)C2,25.63
O=C(NCCCn1nc2ccccn2c1=O)NC1CCC(O)CC1 (centres undefined),-19.08
CC(C)N1CCC(CN2CCn3nc(CNC(=O)N(C)C)cc3C2)CC1,13.16
O=C(Cn1nc(C(F)(F)F)c(Cl)c1C1CC1)NN1CCOCC1,-1.044
CS(=O)(=O)N1CCC2(CCN(Cc3nccs3)CC2)CC1.O=C(O)C(F)(F)F,-12.44
CCOCCCNC(=O)NC(C)c1ccc(-n2cncn2)cc1 (centres undefined),7.361
CCC1c2ccccc2CCN1CCNS(C)(=O)=O (centres undefined),-0.3963
COc1cccc(S(=O)(=O)CCN2CCCN(C(C)=O)CC2)c1,16.19
CN(C)c1nc2c(c(N3CCC4(CC3)CNC(=O)C4)n1)CCCC2,12.9
CC(C)NS(=O)(=O)c1cc(C(=O)O)cc(-c2ccc3c(c2)OCCO3)c1,0.9057
CCOc1ccc(CC(CNC(=O)c2sccc2C)C(N)=O)cc1 (centres undefined),5.728
Cc1ccc(-n2ncc(C(=O)N(C)C3CCN(C)CC3)c2N)cc1C,-24.61
CNC(=O)c1cccc(CCNc2ccc(C#N)cn2)c1,29.39
O=C1CN(C(=O)C2CN(c3cccc(Cl)c3)CCO2)CCN1 (centres undefined),14.37
Cc1ccccc1CN1CCCN(C(=O)c2ccn(C)c(=O)c2)CC1,-39.51
CCc1nc(NS(=O)(=O)c2cc(C)cc(F)c2)no1,-2.321
CN(C)C(=O)N1CCn2cc(CNC(=O)CC3CC3)nc2C1,18.74
CC(=O)Nc1ccc2nn(C(C)C)cc2c1,6.488
Cc1nsc(C(=O)NCCc2ccc(S(N)(=O)=O)cc2)n1,-9.966
CC(C)Cc1nnc(NCc2ccsc2)o1,42.68
O=C(c1cccnc1)N1CCOC(Cc2ccccc2Cl)C1 (centres undefined),20.62
CC(c1ncc(C(C)(C)C)o1)N1CCN(Cc2ccc(Cl)s2)CC1 (centres undefined),27.49
CSc1sc(NC(=O)C2CCCN(C(N)=O)C2)nc1C (centres undefined),6.881
COC1(CNC(=O)c2cccc(C#N)c2)CCSC1 (centres undefined),-17.88
Cc1csc(CN2CCC3(CC2)COC(COCC2CC2)C3)n1.O=C(O)C(F)(F)F (centres undefined),-3.175
CCN(CC)C(=O)CSc1nc2cc(C)nc-2c(O)n1CC,-25.04
CCN(CC)c1ccc2ccc(C(=O)NC3CC3)cn12,37.58
O=C(c1ccc[nH]1)N1CCc2nnc(Cn3cccc3)n2CC1,-2.205
COc1cc(N2CC[C@@H](O)[C@@H]2Cc2cccnc2)ncn1.O=C(O)C(F)(F)F,16.89
O=C(Cc1ccsc1)N1CCCC2(COCCN(CC3CC3)C2)C1.O=C(O)C(F)(F)F (centres undefined),23.67
Cn1c(N)nnc1SC1CCCN(c2ccccc2)C1=O (centres undefined),36.43
Cc1cc(N(C)CCN(C)C)n2nc(C)cc2n1,25.77
O=C(c1ccc(S(=O)(=O)N2CCSCC2)cc1)N1CCC(O)C1 (centres undefined),10.6
CCOCCN(CCOCC)c1nc(C)nc2sccc12,2.407
O=C(NCC1(CO)CC1)c1nnn(-c2ccc(F)cc2)c1C1CC1,1.676
COCCNC(=O)c1cnc(N(C)C)nc1C,14.78
O=C(NCCS(=O)(=O)N1CCN(c2ncccn2)CC1)C1CCCC1,-42.49

Once more, the final 8:

compound	Percent Effect
O=C(Cc1ccsc1)N1CCCC2(COCCN(CC3CC3)C2)C1.O=C(O)C(F)(F)F (centres undefined)	23.67
Cn1c(N)nnc1SC1CCCN(c2ccccc2)C1=O (centres undefined)	36.43
Cc1cc(N(C)CCN(C)C)n2nc(C)cc2n1	25.77
O=C(c1ccc(S(=O)(=O)N2CCSCC2)cc1)N1CCC(O)C1 (centres undefined)	10.6
CCOCCN(CCOCC)c1nc(C)nc2sccc12	2.407
O=C(NCC1(CO)CC1)c1nnn(-c2ccc(F)cc2)c1C1CC1	1.676
COCCNC(=O)c1cnc(N(C)C)nc1C	14.78
O=C(NCCS(=O)(=O)N1CCN(c2ncccn2)CC1)C1CCCC1	-42.49